Experimental data as given in patent publication US7994122B2 (Zealand Pharma A/S, priority 2007, dated 2011).

Test: peptide synthesis
Conditions: whole synthesis

| Substance | purity (crude or final not stated) |
| --- | --- |
| Exendin-4 | 98% |
| H-HSQGTFTSDYSKYLDRARADDFVAWLKST-NH2 | 90% |
| Oxyntomodulin | 91% |
